Experimental data reported in paper PMC4154725.
Results are given in words; binding and its absence hold for the method and conditions named. In cells and extracts the contact can be indirect. Binding can be weak; no strength is given.

T1: VE-cadherin (mouse (endogenous in MyEnd)) (UniProt P55284)
T1 sequence: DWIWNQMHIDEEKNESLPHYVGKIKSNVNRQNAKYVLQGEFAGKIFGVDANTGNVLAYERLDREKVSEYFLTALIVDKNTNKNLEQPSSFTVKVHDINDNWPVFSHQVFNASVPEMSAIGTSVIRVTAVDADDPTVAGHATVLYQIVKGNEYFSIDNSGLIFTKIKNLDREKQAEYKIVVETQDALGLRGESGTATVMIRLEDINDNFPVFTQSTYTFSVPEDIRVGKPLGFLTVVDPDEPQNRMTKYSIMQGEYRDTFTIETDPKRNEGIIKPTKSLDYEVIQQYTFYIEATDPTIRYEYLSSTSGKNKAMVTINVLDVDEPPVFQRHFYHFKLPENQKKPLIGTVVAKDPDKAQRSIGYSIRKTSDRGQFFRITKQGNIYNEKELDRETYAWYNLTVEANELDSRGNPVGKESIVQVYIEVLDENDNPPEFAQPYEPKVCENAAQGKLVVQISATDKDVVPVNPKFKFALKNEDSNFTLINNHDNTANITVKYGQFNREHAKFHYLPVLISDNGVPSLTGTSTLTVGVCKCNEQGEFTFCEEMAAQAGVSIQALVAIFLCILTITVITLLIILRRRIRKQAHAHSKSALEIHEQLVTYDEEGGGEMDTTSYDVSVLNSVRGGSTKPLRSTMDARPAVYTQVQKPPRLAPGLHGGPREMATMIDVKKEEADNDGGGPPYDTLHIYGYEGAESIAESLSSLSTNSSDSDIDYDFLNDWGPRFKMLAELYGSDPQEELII


Legend:
[1] = molecular target: T1, VE-cadherin (mouse (endogenous in MyEnd)); assay: co-IP; MyEnd lysate (0.5% Nonidet-40, 10 mM HEPES pH 7.9, 1.5 mM MgCl2, 10 mM KCl, 5 mM EDTA); IP with goat anti-VE-cadherin antibody and Protein G Plus-Agarose, 4°C; Western blot; control IP with beads, no antibody
[2] = molecular target: PKA regulatory subunit II (RII) alpha (mouse (endogenous in MyEnd)); assay: co-IP; MyEnd lysate (0.5% Nonidet-40, 10 mM HEPES pH 7.9, 1.5 mM MgCl2, 10 mM KCl, 5 mM EDTA); IP with rabbit anti-PKA antibody and Protein G Plus-Agarose, 4°C; Western blot; control IP with beads, no antibody; also from cells treated with TAT-Ahx-mhK77, TAT-Ahx-AKAPis or F/R (forskolin/rolipram)

binding [1]	binding [2]	Molecule
binds	–	PKA regulatory subunit II (RII) alpha (mouse (endogenous in MyEnd))
–	binds	VE-cadherin (protein, UniProt P55284 46-784) DWIWNQMHIDEEKNESLPHYVGKIKSNVNRQNAKYVLQGEFAGKIFGVDANTGNVLAYERLDREKVSEYFLTALIVDKNTNKNLEQPSSFTVKVHDINDNWPVFSHQVFNASVPEMSAIGTSVIRVTAVDADDPTVAGHATVLYQIVKGNEYFSIDNSGLIFTKIKNLDREKQAEYKIVVETQDALGLRGESGTATVMIRLEDINDNFPVFTQSTYTFSVPEDIRVGKPLGFLTVVDPDEPQNRMTKYSIMQGEYRDTFTIETDPKRNEGIIKPTKSLDYEVIQQYTFYIEATDPTIRYEYLSSTSGKNKAMVTINVLDVDEPPVFQRHFYHFKLPENQKKPLIGTVVAKDPDKAQRSIGYSIRKTSDRGQFFRITKQGNIYNEKELDRETYAWYNLTVEANELDSRGNPVGKESIVQVYIEVLDENDNPPEFAQPYEPKVCENAAQGKLVVQISATDKDVVPVNPKFKFALKNEDSNFTLINNHDNTANITVKYGQFNREHAKFHYLPVLISDNGVPSLTGTSTLTVGVCKCNEQGEFTFCEEMAAQAGVSIQALVAIFLCILTITVITLLIILRRRIRKQAHAHSKSALEIHEQLVTYDEEGGGEMDTTSYDVSVLNSVRGGSTKPLRSTMDARPAVYTQVQKPPRLAPGLHGGPREMATMIDVKKEEADNDGGGPPYDTLHIYGYEGAESIAESLSSLSTNSSDSDIDYDFLNDWGPRFKMLAELYGSDPQEELII
